pIC50: −log10 of the molar value. Where two headings read alike, the source gives them in different places. Some entries share one result that the patent states for a list of compounds. For some assays here: At least one structure is not confirmed: it was looked up by name or label, or the drawing left a doubt.
Columns and labels:
[1] = test system: Notch 1; assay: Notch-CBF1 Transactivation Assay (Notch 1); assay type: cell-based
Description: (§1) Table 12 denotes respective DNA quantity for the transfections.
(§2) Duplicates were used for each sample.

[2] = High Throughput (HT) Metabolic Stability Panel, human liver microsomes; conditions: ten-minute incubation
Protocol: (§3) Each compound was tested in duplicate.

[3] = test system: Notch 3; assay: Notch-CBF1 Transactivation Assay (Notch 3); assay type: cell-based
Description: as §1, §2

[4] = High Throughput (HT) Metabolic Stability Panel, mouse liver microsomes; conditions: ten-minute incubation
Protocol: as §3

[5] = read-out: Notch 1 IC50, HeLa cells, luciferase
[6] = read-out: Notch 3 IC50, HeLa cells, luciferase
[7] = HeLa cells, luciferase, read-out: Notch 1 IC50
[8] = HeLa cells, luciferase, read-out: Notch 3 IC50

Structure (SMILES) | pIC50 [1, 5] | metabolic stability, percent remaining, human liver microsomes (HLM) [2] [%] | pIC50 [3, 6] | metabolic stability, percent remaining, mouse liver microsomes (MsLM) [4] [%] | pIC50 [1, 7] | pIC50 [3, 8]
CC(C)C[C@@H](C(=O)N[C@H]1N=C(c2ccccc2)c2ccccc2N(C)C1=O)[C@H](CCC(F)(F)F)C(N)=O [Comparative Compound 22, reference compound] | ≤ 8.29 | ≤ 39 | ≤ 7.89 | ≤ 15 | – | –
C=CC[C@H](C(N)=O)[C@@H](CC(C)C)C(=O)N[C@H]1N=C(c2ccccc2)c2cc(Cl)ccc2N(C)C1=O [Comparative Compound 23, reference compound] | – | ≤ 39 | – | ≤ 15 | – | –
CCCC[C@H](C(N)=O)[C@@H](CC(C)C)C(=O)N[C@H]1N=C(c2ccc(Cl)cc2)c2ccccc2N(C)C1=O [Comparative Compound 24, reference compound] | – | ≤ 39 | – | ≤ 15 | – | –
C=CC[C@H](C(N)=O)[C@@H](CC(C)C)C(=O)N[C@H]1N=C(c2ccccc2)c2ccccc2N(CCC)C1=O [Comparative Compound 25, reference compound] | – | ≤ 39 | – | ≤ 15 | – | –
NC(=O)[C@@H](CCC(F)(F)F)[C@@H](CCC(F)(F)F)C(=O)N[C@H]1N=C(c2ccccc2)c2ccccc2NC1=O [Example 2, (2R,3S)—N-((3S)-2-Oxo-5-phenyl-2,3-dihydro-1H-1,4-benzodiazepin-3-yl)-2,3-bis(3,3,3-trifluoropropyl)succinamide] | ≥ 8.18 | – | ≥ 7.89 | – | – | –
CN1C(=O)[C@@H](NC(=O)[C@H](CC(F)(F)F)[C@H](CCC(F)(F)F)C(N)=O)N=C(c2ccccc2)c2ccccc21 [Example 3, (2R,3S)—N-((3S)-1-Methyl-2-oxo-5-phenyl-2,3-dihydro-1H-1,4-benzodiazepin-3-yl)-2-(2,2,2-trifluoroethyl)-3-(3,3,3-trifluoropropyl)succinamide] | ≥ 8.18 | ≥ 80 | ≥ 7.89 | ≥ 72 | – | –
CN1C(=O)[C@@H](NC(=O)[C@H](CCC(F)(F)F)[C@H](CC(F)(F)F)C(N)=O)N=C(c2ccccc2)c2ccccc21 [Example 4, (2R,3S)—N-((3S)-1-Methyl-2-oxo-5-phenyl-2,3-dihydro-1H-1,4-benzodiazepin-3-yl)-3-(2,2,2-trifluoroethyl)-2-(3,3,3-trifluoropropyl)succinamide] | ≥ 8.18 | ≥ 80 | ≥ 7.89 | ≥ 72 | – | –
CN1C(=O)[C@@H](NC(=O)[C@H](CCC(F)(F)F)[C@H](CCC(F)(F)F)C(N)=O)N=C(c2ccccc2)c2cc(Cl)ccc21 [Example 6, (2R,3S)—N-((3S)-7-chloro-1-methyl-2-oxo-5-phenyl-2,3-dihydro-1H-1,4-benzodiazepin-3-yl)-2,3-bis(3,3,3-trifluoropropyl)succinamide] | ≥ 8.18 | – | ≥ 7.89 | – | – | –
COc1ccc2c(c1)N(C)C(=O)[C@@H](NC(=O)[C@H](CCC(F)(F)F)[C@H](CCC(F)(F)F)C(N)=O)N=C2c1ccccc1 [Example 7, (2R,3S)—N-((3S)-8-methoxy-1-methyl-2-oxo-5-phenyl-2,3-dihydro-1H-1,4-benzodiazepin-3-yl)-2,3-bis(3,3,3-trifluoropropyl)succinamide] | – | – | – | – | ≥ 8.18 | ≥ 7.89
CN1C(=O)[C@@H](NC(=O)[C@H](CCC(F)(F)F)[C@H](CCC(F)(F)F)C(N)=O)N=C(c2ccccc2)c2ccc(F)cc21 [Example 8, (2R,3S)—N-((3S)-8-fluoro-1-methyl-2-oxo-5-phenyl-2,3-dihydro-1H-1,4-benzodiazepin-3-yl)-2,3-bis(3,3,3-trifluoropropyl)succinamide] | ≥ 8.18 | ≥ 80 | ≥ 7.89 | ≥ 72 | – | –
COc1ccc2c(c1)C(c1ccccc1)=N[C@H](NC(=O)[C@H](CCC(F)(F)F)[C@H](CCC(F)(F)F)C(N)=O)C(=O)N2C [Example 9, (2R,3S)—N-((3S)-7-methoxy-1-methyl-2-oxo-5-phenyl-2,3-dihydro-1H-1,4-benzodiazepin-3-yl)-2,3-bis(3,3,3-trifluoropropyl)succinamide] | ≥ 8.18 | – | ≥ 7.89 | – | – | –
CN1C(=O)[C@@H](NC(=O)[C@H](CCC(F)(F)F)[C@H](CCC(F)(F)F)C(N)=O)N=C(c2ccccc2)c2cc(F)ccc21 [Example 10, (2R,3S)—N-((3S)-7-fluoro-1-methyl-2-oxo-5-phenyl-2,3-dihydro-1H-1,4-benzodiazepin-3-yl)-2,3-bis(3,3,3-trifluoropropyl)succinamide] | ≥ 8.18 | – | ≥ 7.89 | – | – | –
CN1C(=O)[C@@H](NC(=O)[C@H](CCC(F)(F)F)[C@H](CCC(F)(F)F)C(N)=O)N=C(c2ccccc2)c2ccc(Cl)cc21 [Example 11, (2R,3S)—N-((3S)-8-chloro-1-methyl-2-oxo-5-phenyl-2,3-dihydro-1H-1,4-benzodiazepin-3-yl)-2,3-bis(3,3,3-trifluoropropyl)succinamide] | ≥ 8.18 | – | ≥ 7.89 | – | – | –
COc1cccc2c1NC(=O)[C@@H](NC(=O)[C@H](CCC(F)(F)F)[C@H](CCC(F)(F)F)C(N)=O)N=C2c1ccccc1 [Example 12, (2R,3S)—N-((3S)-9-methoxy-2-oxo-5-phenyl-2,3-dihydro-1H-1,4-benzodiazepin-3-yl)-2,3-bis(3,3,3-trifluoropropyl)succinamide] | ≥ 8.18 | – | ≥ 7.89 | – | – | –
COc1ccc2c(c1)NC(=O)[C@@H](NC(=O)[C@H](CCC(F)(F)F)[C@H](CCC(F)(F)F)C(N)=O)N=C2c1ccccc1 [Example 13, (2R,3S)—N-((3S)-8-methoxy-2-oxo-5-phenyl-2,3-dihydro-1H-1,4-benzodiazepin-3-yl)-2,3-bis(3,3,3-trifluoropropyl)succinamide] | – | – | – | – | ≥ 8.18 | ≥ 7.89
COc1ccc2c(c1)C(c1ccccc1)=N[C@H](NC(=O)[C@H](CCC(F)(F)F)[C@H](CCC(F)(F)F)C(N)=O)C(=O)N2 [Example 14, (2R,3S)—N-((3S)-7-methoxy-2-oxo-5-phenyl-2,3-dihydro-1H-1,4-benzodiazepin-3-yl)-2,3-bis(3,3,3-trifluoropropyl)succinamide] | – | – | – | – | ≥ 8.18 | ≥ 7.89
COc1c(C#N)ccc2c1NC(=O)[C@@H](NC(=O)[C@H](CCC(F)(F)F)[C@H](CCC(F)(F)F)C(N)=O)N=C2c1ccccc1 [Example 15, (2R,3S)—N-((3S)-8-cyano-9-methoxy-2-oxo-5-phenyl-2,3-dihydro-1H-1,4-benzodiazepin-3-yl)-2,3-bis(3,3,3-trifluoropropyl)succinamide] | ≥ 8.18 | ≥ 80 | ≥ 7.89 | ≥ 72 | – | –
NC(=O)[C@@H](CCC(F)(F)F)[C@@H](CCC(F)(F)F)C(=O)N[C@H]1N=C(c2ccccc2)c2ccc(Cl)c(Cl)c2NC1=O [Example 16, (2R,3S)—N-((3S)-8,9-dichloro-2-oxo-5-phenyl-2,3-dihydro-1H-1,4-benzodiazepin-3-yl)-2,3-bis(3,3,3-trifluoropropyl)succinamide] | ≥ 8.18 | – | ≥ 7.89 | – | – | –
NC(=O)[C@@H](CCC(F)(F)F)[C@@H](CCC(F)(F)F)C(=O)N[C@H]1N=C(c2ccccc2)c2cccc(F)c2NC1=O [Example 17, (2R,3S)—N-((3S)-9-fluoro-2-oxo-5-phenyl-2,3-dihydro-1H-1,4-benzodiazepin-3-yl)-2,3-bis(3,3,3-trifluoropropyl)succinamide] | ≥ 8.18 | ≥ 80 | ≥ 7.89 | ≥ 72 | – | –
NC(=O)[C@@H](CCC(F)(F)F)[C@@H](CCC(F)(F)F)C(=O)N[C@H]1N=C(c2ccccc2)c2cccc(Cl)c2NC1=O [Example 18, (2R,3S)—N-((3S)-9-chloro-2-oxo-5-phenyl-2,3-dihydro-1H-1,4-benzodiazepin-3-yl)-2,3-bis(3,3,3-trifluoropropyl)succinamide] | ≥ 8.18 | – | ≥ 7.89 | – | – | –
NC(=O)[C@@H](CCCC(F)(F)F)[C@@H](CCC(F)(F)F)C(=O)N[C@H]1N=C(c2ccccc2)c2ccccc2NC1=O [Example 19, (2R,3S)—N-((3S)-2-Oxo-5-phenyl-2,3-dihydro-1H-1,4-benzodiazepin-3-yl)-3-(4,4,4-trifluorobutyl)-2-(3,3,3-trifluoropropyl)succinamide] | ≥ 8.18 | ≥ 80 | ≥ 7.89 | ≥ 72 | – | –
COc1ccc2c(c1)NC(=O)[C@@H](NC(=O)[C@H](CCC(F)(F)F)[C@H](CCCC(F)(F)F)C(N)=O)N=C2c1ccccc1 [Example 20, (2R,3S)—N1-((3S)-8-Methoxy-2-oxo-5-phenyl-2,3-dihydro-1H-1,4-benzodiazepin-3-yl)-3-(4,4,4-trifluorobutyl)-2-(3,3,3-trifluoropropyl)succinamide] | ≥ 8.18 | ≥ 80 | ≥ 7.89 | ≥ 72 | – | –
COCCNc1cccc2c1NC(=O)[C@@H](NC(=O)[C@H](CCC(F)(F)F)[C@H](CCC(F)(F)F)C(N)=O)N=C2c1ccccc1 [Example 21, (2R,3S)—N-((3S)-9-((2-Methoxyethyl)amino)-2-oxo-5-phenyl-2,3-dihydro-1H-1,4-benzodiazepin-3-yl)-2,3-bis(3,3,3-trifluoropropyl)succinamide] | ≥ 8.18 | – | ≥ 7.89 | – | – | –

Reference: patent US20150284342A1, “BIS(FLUOROALKYL)-1,4-BENZODIAZEPINONE COMPOUNDS” (BRISTOL-MYERS SQUIBB COMPANY, priority 2011, published 2015)
